# Measured values taken from PubChem BioAssay AID2685 (National Center for Advancing Translational Sciences (NCATS), 2010).
# Among all 320,000 compounds or so, about 2,100 (0.66%) were called active. This list was built around the results that the source calls inconclusive (neither active nor inactive); the mix of calls is not that of the screen. The call rests on the fitted dose curve; in most records, active means well fitted inhibition curve with a large enough effect in the signal ratio, with a control signal flat (not every such curve was filed as active); inconclusive means small, poorly fitted or top-dose-only effect, or effect the other way, or a change in a side signal; inactive means flat fitted curve, though single readings scatter; the % refers to the signal ratio. Where the call is inconclusive, the potency comes from a doubtful curve fit.
# Assay: qHTS Assay for Lipid Storage Modulators in Drosophila S3 Cells
# Conditions: BODIPY lipid droplet fluorescence, 18-24 h, cells fed with added oleic acid; lipid storage change, negative = inhibition: at 46.1 µM (top of the series) unless noted
# Outline: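 Laser-scanning cytometry quantifies lipid droplet accumulation (500–530 nm total intensity; droplet/cell object ratio) in oleic acid-fed (400 uM added) Drosophila S3 cells treated with a concentration series. 20 uM Triacsin C defined 100% inhibition.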
# On the % scale 0 is the no-effect control and ±100 the full control effect; potency means the concentration at half of the fitted maximal effect.
Compound,"lipid storage change, negative = inhibition",Potency
O=C(CCC1CCCC1)NCc1ccccn1,inconclusive: 9.16%,
COc1cc(-c2nnc(CSc3nnc(N)s3)o2)cc(OC)c1OC,,"inconclusive: 10.3 µM [activator, partial curve]"
COc1ccccc1OCCn1cc(/C=N/n2cnnc2)c2ccccc21,,"inconclusive: 0.082 µM [activator, full curve, poor fit]"
CSc1cccc(NC(=O)Cc2ccccc2[N+](=O)[O-])c1,inconclusive: 23.1% [at 9.22 µM],
COc1cccc(NC(C)C(=O)N2CC(C)OC(C)C2)c1 (stereo not drawn),,"inconclusive: 10.3 µM [activator, partial curve, poor fit]"
COc1cccc2oc(-c3ccco3)cc(=O)c12,inconclusive: 1.08%,
COC(=O)C1=C(N)Oc2cc(C)n(CCCn3ccnc3)c(=O)c2C1c1cccc(Cl)c1 (stereo not drawn),,"inconclusive: 0.411 µM [activator, partial curve]"
CC(C)(C)NC(=O)C(c1ccc(O)cc1)N(Cc1ccco1)C(=O)Cn1nnc(-c2cccs2)n1 (stereo not drawn),inconclusive: -17.4%,
COc1ccc(CNC(=O)Cn2nnc(-c3ccc(NC(=O)C4CCCCC4)cc3)n2)cc1,inconclusive: -17.3%,
O=c1c(C(c2nnnn2C2CCCCC2)N2CCCCC2)coc2ccc(Cl)cc12 (stereo not drawn),inconclusive: 11.3%,
CCOc1ccc(NC(=O)CSc2nc3[nH]ncc3c(=O)n2-c2ccccc2OC)cc1,,"inconclusive: 2.91 µM [activator, partial curve]"
CNC(=O)c1[nH]cnc1C(=O)Nc1cccc(OC)c1,inconclusive: 18%,
O=[N+]([O-])c1nn(-c2ccc3c(c2)OCCO3)n(O)c1=NCc1ccccc1Cl,inconclusive: -26%,
Cc1ccccc1NC(=O)C1CCCN(S(=O)(=O)c2c(C)noc2C)C1 (stereo not drawn),inconclusive: 5.25%,
CCOc1ccc(S(=O)(=O)NCCC(=O)NCC2CCCO2)cc1 (stereo not drawn),,"inconclusive: 3.26 µM [activator, single point]"
C/C(=N/NS(=O)(=O)c1cccc([N+](=O)[O-])c1)c1ccc2c(c1)OCO2,inconclusive: 167%,
Cn1c(N2CCN(C(=O)C34CC5CC(CC(C5)C3)C4)CC2)nc2ccccc21,,"inconclusive: 0.164 µM [falling, full curve, poor fit]"
COc1cc(OC)c(/C=N/NC(=O)Cn2nc([N+](=O)[O-])cc2C)c(OC)c1,inactive: 8.36%,
CCOc1ccc(CCNC(=O)CN2C(=O)c3cccnc3Oc3ccc(Cl)cc32)cc1,,"inconclusive: 16.4 µM [falling, partial curve, poor fit]"
CCCNC(=O)COC(=O)c1ccc(S(=O)(=O)N2CCCC2)cc1,inconclusive: 56.2%,
CN(C)/C(=N\S(=O)(=O)c1ccccc1)c1ccc([N+](=O)[O-])cc1,inconclusive: 11.7%,
COc1ccc(NC(=O)C2CCC(=O)N2C(=O)OCc2ccccc2)cc1 (stereo not drawn),inconclusive: 5.23%,
Cn1cc(C(=O)c2ccc(F)cc2)cc1-c1nc2ccccc2n1C,,"inconclusive: 6.51 µM [rising, single point]"
CCOc1ccc2ccccc2c1C1NC(=O)NC(C)=C1C(=O)OCCOC (stereo not drawn),,"inconclusive: 29.1 µM [activator, single point]"

Compound,"lipid storage change, negative = inhibition",Potency
CN(c1cccc(Cl)c1)S(=O)(=O)c1cccc(C(=O)NCc2ccncc2)c1,,"inconclusive: 6.51 µM [activator, single point]"
COc1ccc(-c2cc(=O)oc3cc(OC(=O)C4CCCCC4)c(Cl)cc23)cc1,,"inconclusive: 29.1 µM [falling, single point]"
O=c1c2cccnc2[nH]c(=S)n1CCCN1CCN(c2ccccc2F)CC1,inconclusive: 13.8%,
CC(C)CC(=O)NC(=S)Nc1ccc(S(=O)(=O)N2CCCC2)cc1,inconclusive: -21.4%,
Cc1ccc(S(=O)(=O)NC(=NCC(=O)O)c2ccccc2)cc1,inconclusive: -10%,
O=C(Nc1nc2ccccc2[nH]1)C1CCN(C(=O)c2ccc(F)cc2)CC1,inconclusive: 29.1%,
O=C(NCc1ccncc1)c1ccc(S(=O)(=O)Nc2ccccc2)cc1,inconclusive: -0.691%,
Cc1ccc(NC(=O)COc2ccccc2C(=O)NCCc2ccccc2)cc1,,"inconclusive: 18.4 µM [falling, single point]"
Cc1c(C(=O)N2CCCCCC2)oc2ccccc12,inconclusive: 71.9%,
Cc1ccccc1Nc1c(-c2cccnc2)nc2ccccn12,inconclusive: 20.7%,
CC(C)(C)OC(=O)N1CCN(C(=O)[C@H](Cc2ccc(O)cc2)n2cc(CCO)nn2)CC1,inconclusive: -32.2%,
O=C1c2cccnc2C(=O)N1Cc1cccs1,inconclusive: 26.3% [at 9.22 µM],
C/C(=N\NC(=O)C1CC1)c1ccc(C)c(C)c1,inconclusive: -27.3%,
CC1CCCN(Cc2nc3c(c(=O)n(C)c(=O)n3C)n2CC(N)=O)C1 (stereo not drawn),inconclusive: -4.31%,
COc1ccc(-c2csc3ncnc(N4CCN(c5ccccc5OC)CC4)c23)cc1,,"inconclusive: 29.1 µM [activator, single point]"
CCC(=O)Oc1ccc2c(C)cc(=O)oc2c1C(=O)c1ccccc1,inconclusive: -10.8%,
Cn1c(N)c(Br)c(-c2ccc(F)cc2)c(C#N)c1=O,inconclusive: 64.5%,
O=C(Nc1cccc(F)c1)c1ccc(S(=O)(=O)N2CCOCC2)cc1,inconclusive: -18.9%,
CNS(=O)(=O)c1ccc2c3c(cccc13)C(=O)N2,inconclusive: -6.95%,
CCOc1ccc(Nc2nc(N)nc(CN3CCN(c4ccccc4F)CC3)n2)cc1,,"inconclusive: 3.66 µM [rising, single point]"
CC(CN1CCOCC1)OC(=O)c1ccc2c(c1)OCCO2 (stereo not drawn),inconclusive: 12.6%,
Cc1ccc(Nc2nc(N)nc(CN3CCN(C)CC3)n2)cc1,,active: 25.9 µM
Cc1ccc(-n2nnc3c(=O)n(CC(=O)N4CCC(C)CC4)cnc32)cc1,,"inconclusive: 29.1 µM [falling, single point]"
O=C1COc2ccc(C(=O)COc3ccc(Cl)cc3Br)cc2N1,,"inconclusive: 5.17 µM [activator, partial curve]"

# Structures from the list above containing a tert-butyl group:
Compound,"lipid storage change, negative = inhibition",Potency
CC(C)(C)NC(=O)C(c1ccc(O)cc1)N(Cc1ccco1)C(=O)Cn1nnc(-c2cccs2)n1 (stereo not drawn),inconclusive: -17.4%,
CC(C)(C)OC(=O)N1CCN(C(=O)[C@H](Cc2ccc(O)cc2)n2cc(CCO)nn2)CC1,inconclusive: -32.2%,
